The M2OR odorant receptor database
The entries are a selection whose mix differs from that of the whole data set. The calls were merged from several studies; some rest on single wells. The list shows a part of the results.

Chains of the proteins cited; added tags and fusions are not shown. A line that says so, or that is headed by a name, gives the form on record, which may keep a tag or linker.
OR7C1, as listed by the source: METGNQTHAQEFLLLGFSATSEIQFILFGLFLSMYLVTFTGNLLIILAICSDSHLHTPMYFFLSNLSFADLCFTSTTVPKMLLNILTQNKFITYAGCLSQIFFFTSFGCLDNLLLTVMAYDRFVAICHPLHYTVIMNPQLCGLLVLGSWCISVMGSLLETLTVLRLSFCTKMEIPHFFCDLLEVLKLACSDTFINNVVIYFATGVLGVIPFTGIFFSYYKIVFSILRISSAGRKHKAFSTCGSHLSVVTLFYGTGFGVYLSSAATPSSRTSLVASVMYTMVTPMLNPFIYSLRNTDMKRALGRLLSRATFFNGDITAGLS
OR7D4 R88W, as listed by the source, stated change not applied: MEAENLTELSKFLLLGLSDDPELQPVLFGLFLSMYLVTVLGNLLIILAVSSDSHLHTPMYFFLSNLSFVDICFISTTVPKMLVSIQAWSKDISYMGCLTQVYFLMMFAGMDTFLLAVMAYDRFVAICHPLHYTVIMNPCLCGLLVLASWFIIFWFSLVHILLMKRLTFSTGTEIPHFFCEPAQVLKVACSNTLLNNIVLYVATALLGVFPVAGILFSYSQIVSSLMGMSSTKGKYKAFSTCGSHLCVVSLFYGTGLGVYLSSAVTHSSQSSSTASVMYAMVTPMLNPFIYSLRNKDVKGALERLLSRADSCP
OR7D4 T133M, as listed by the source, stated change not applied: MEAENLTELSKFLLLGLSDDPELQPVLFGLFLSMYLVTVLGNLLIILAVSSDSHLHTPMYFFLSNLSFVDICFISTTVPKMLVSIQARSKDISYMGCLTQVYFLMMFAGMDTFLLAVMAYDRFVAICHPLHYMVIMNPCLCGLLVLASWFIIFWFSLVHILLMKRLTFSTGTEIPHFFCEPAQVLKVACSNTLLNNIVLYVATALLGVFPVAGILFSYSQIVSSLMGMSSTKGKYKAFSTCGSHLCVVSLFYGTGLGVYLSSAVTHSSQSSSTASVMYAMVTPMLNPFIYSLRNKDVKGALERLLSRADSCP
OR7D4 S84N, as listed by the source, stated change not applied: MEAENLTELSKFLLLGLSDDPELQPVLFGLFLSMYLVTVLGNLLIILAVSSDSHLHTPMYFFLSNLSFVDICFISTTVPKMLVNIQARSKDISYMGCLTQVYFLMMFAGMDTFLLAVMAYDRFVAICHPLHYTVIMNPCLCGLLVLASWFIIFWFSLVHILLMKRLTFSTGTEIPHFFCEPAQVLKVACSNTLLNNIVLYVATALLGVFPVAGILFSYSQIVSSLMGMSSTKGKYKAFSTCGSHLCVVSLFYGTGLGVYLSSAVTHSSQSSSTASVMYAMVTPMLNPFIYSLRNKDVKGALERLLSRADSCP

How the values were obtained:
Conditions in all cases: stereoisomer not certain
OR7C2 = tested on: T1, OR7C2
T1 sequence (whole entry): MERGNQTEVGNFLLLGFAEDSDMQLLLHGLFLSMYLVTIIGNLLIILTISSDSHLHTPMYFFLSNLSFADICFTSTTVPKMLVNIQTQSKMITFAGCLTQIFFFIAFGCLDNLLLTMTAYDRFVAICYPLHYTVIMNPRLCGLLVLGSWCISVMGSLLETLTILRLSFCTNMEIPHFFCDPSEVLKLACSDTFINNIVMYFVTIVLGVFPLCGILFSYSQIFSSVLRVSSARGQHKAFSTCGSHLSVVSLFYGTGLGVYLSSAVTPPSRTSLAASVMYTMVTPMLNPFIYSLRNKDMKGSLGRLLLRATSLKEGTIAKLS
Outline: (§1)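 Each receptor–molecule pair is labelled responsive or non-responsive (inactive) according to whether the original authors judged the measured signal statistically different from baseline. The data were taken from the main text and supplementary material of published papers and checked for typos and inconsistencies. Assay methods differed by source, with transient luciferase assays in mammalian cell lines being common.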

OR7D2 = tested on: T2, OR7D2
T2 sequence (whole entry): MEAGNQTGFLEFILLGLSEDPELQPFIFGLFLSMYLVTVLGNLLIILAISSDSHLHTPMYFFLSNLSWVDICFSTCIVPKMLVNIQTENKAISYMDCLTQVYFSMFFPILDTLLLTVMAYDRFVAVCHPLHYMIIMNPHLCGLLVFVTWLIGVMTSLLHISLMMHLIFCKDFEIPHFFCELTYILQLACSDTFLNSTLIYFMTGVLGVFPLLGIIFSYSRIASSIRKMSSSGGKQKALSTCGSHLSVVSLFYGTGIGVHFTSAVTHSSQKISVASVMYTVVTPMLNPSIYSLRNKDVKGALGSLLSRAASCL
Outline: as §1

OR7D4 (Homo sapiens) = biological target: T3, OR7D4 (Homo sapiens) (UniProt Q8NG98)
T3 sequence (whole entry): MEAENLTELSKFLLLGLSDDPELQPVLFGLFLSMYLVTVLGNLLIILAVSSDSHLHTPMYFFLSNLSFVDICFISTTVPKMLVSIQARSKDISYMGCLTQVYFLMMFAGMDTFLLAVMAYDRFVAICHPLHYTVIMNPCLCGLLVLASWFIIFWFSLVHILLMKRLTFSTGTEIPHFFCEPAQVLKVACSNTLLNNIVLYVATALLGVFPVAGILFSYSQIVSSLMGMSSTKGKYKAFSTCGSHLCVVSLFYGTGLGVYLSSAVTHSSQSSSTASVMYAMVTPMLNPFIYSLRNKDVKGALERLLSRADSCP
Outline: as §1

OR7C1 = tested on: OR7C1
Outline: as §1

OR7D2 (Homo sapiens) = OR7D2 (Homo sapiens) (UniProt Q96RA2)
Outline: as §1

OR7D4 R88W = tested on: OR7D4 R88W
Outline: as §1

OR7D4 S84N = tested on: OR7D4 S84N
Outline: as §1

OR7D4 T133M = tested on: OR7D4 T133M
Outline: as §1

Measured: odorant receptor agonist call;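 further: active if original authors judged signal statistically different from baseline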

CCCCCC(C)=O
inactive: OR7C2 | OR7D2 | OR7D4 (Homo sapiens)

CC(=O)OC1CC2CCC1(C)C2(C)C (stereo unspecified)
inactive: OR7C2 | OR7D2 | OR7D4 (Homo sapiens)

CC12C=CCC1C1CCC3=CC(=O)CCC3(C)C1CC2 (stereo unspecified)
inactive: OR7C2 | OR7D2 (Homo sapiens) | OR7D2
active: OR7C1 | OR7D4 (Homo sapiens) | OR7D4 R88W | OR7D4 S84N | OR7D4 T133M

CCC=CCCO
inactive: OR7C2 | OR7D2 | OR7D4 (Homo sapiens)

CC(C)=CCCC(C)=CC=O
inactive: OR7C2 | OR7D2 | OR7D4 (Homo sapiens)

CC(C)CCC(=O)O
inactive: OR7C2 | OR7D2 | OR7D4 (Homo sapiens)

CC(=O)OC(C)(C)C1CC=C(C)CC1 (stereo unspecified)
inactive: OR7C2 | OR7D2 | OR7D4 (Homo sapiens)
